Test results published in PubChem BioAssay AID504467 (National Center for Advancing Translational Sciences (NCATS), 2011).
Hit rate of the full screen: of about 330,000 compounds, about 7,700 (2.3%) were called active. This list was built around the results that the source calls inconclusive (neither active nor inactive); the mix of calls is not that of the screen. Calls come from the whole dose curve; as a rule, active = well fitted inhibition curve with a large enough effect; inconclusive = small, poorly fitted or top-dose-only effect, or effect the other way; inactive = flat fitted curve, though single readings scatter. A potency beside an inconclusive call is a rough fit, not a confirmed value.

Experiment: qHTS screen for small molecules that inhibit ELG1-dependent DNA repair in human embryonic kidney (HEK293T) cells expressing luciferase-tagged ELG1; note: nearly all actives have a fitted effect of over 55% in size
Conditions: HEK293T ELG1-luciferase reporter, luminescence, 16 h, DNA damage induced by 5-fluorouridine; activity change, negative = inhibition: at 46.1 µM (top of the series)
In short: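 Luminescence from the luciferase reporter, measured 30 min after ONE-Glo reagent at room temperature, was the read-out. Beforehand, 2,000 cells per well were exposed for 16 hr at 37 °C to 5-fluorouridine together with compound or vehicle.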
% is set by controls: 0 for no effect and ±100 for the full control effect; potency is the fitted concentration of half-maximal effect.

Row | SMILES | activity change, negative = inhibition | Potency
1 | Cc1cc(=O)[nH]c(SCc2cccc3ccccc23)n1 | inactive: 1.9% | 
2 | CCc1cc2c(=O)[nH]c(N3CCOCC3)nc2s1 |  | inconclusive: 14.6 µM [activator, partial curve]
3 | Cc1cc(SCC(=O)N/N=C/c2ccc(O)cc2O)nc2ccccc12 | inactive: 2.01% | 
4 | O=C(c1ccccc1)c1ncc[nH]1 |  | inconclusive: 13 µM [activator, partial curve]
5 | Clc1ccc(-c2noc(COc3ccccc3)n2)cc1 |  | inconclusive: 23.1 µM [activator, partial curve]
6 | Cc1cccc(-c2sc(Nc3ccccc3)n[n+]2-c2ccccc2)c1 |  | inconclusive: 22.4 µM [activator, single point]
7 | O=c1[nH]nc(CNc2ccc(O)cc2)c2ccccc12 | inactive: 1.19% | 
8 | CCN(c1ccccc1)S(=O)(=O)c1ccc(Cl)c(NC(=O)CNC(C)c2ccccc2)c1 (stereo unspecified) |  | active: 14.6 µM
9 | O=C(Nc1ccccc1C(=O)Nc1nnc(C(F)(F)F)s1)c1ccccc1Cl |  | active: 5.17 µM
10 | COc1cc(/C=C/C(=O)N2CCN(CC(O)COc3ccccc3)CC2)cc(OC)c1OC (stereo unspecified) |  | inconclusive: 20.6 µM [inhibitor, single point]
11 | Cc1cccc(C(=O)OCC(=O)NCC2COc3ccccc3O2)c1 (stereo unspecified) | inactive: 7.84% | 
12 | O=C(NCC1CCCCC1)c1cccc(S(=O)(=O)N2CCCC2)c1 | inactive: -2.04% | 
13 | CC[C@@]12C(=O)N(c3ccccc3)C(=O)N1[C@H](c1ccc(OC)cc1)[C@@H]1C(=O)N(C(C)(C)C)C(=O)[C@@H]12 |  | inconclusive: 3.55 µM [activator, single point]
14 | COc1cc(CNn2nnnc2N)cc(Br)c1OCc1c(Cl)cccc1Cl |  | inconclusive: 9.2 µM [inhibitor, partial curve]
15 | Cc1cc(NC(=O)CSc2nc3cc(Cl)ccc3c(=O)n2Cc2ccco2)no1 |  | inconclusive: 29.1 µM [activator, single point]
16 | CCN1CCN(CC2COc3ccccc3O2)CC1 (stereo unspecified) |  | inconclusive: 8.2 µM [activator, partial curve]
17 | CC1(C(=O)NCCCNc2ncc(C(F)(F)F)cc2Cl)C=CCN1C(=O)c1ccccc1 (stereo unspecified) | inactive: 24.1% | 
18 | Cc1ccc2nc3n(c(=O)c2c1)-c1ccc(Cl)cc1C(=O)NC3Cc1ccccc1 (stereo unspecified) | inactive: 24.9% | 
19 | Cc1cnc(NC(=O)C2CC=CCC2)s1 (stereo unspecified) |  | inconclusive: 20.6 µM [activator, single point]
20 | O=C(NNC(=O)c1cc(-c2ccncc2)nc2ccccc12)c1cccc(Cl)c1 |  | inconclusive: 29.1 µM [inhibitor, single point]
21 | CCC(=O)Nc1nc2ccccc2n1Cc1ccccc1 |  | inconclusive: 11.2 µM [inhibitor, partial curve]
22 | Cc1cc(-n2cnnn2)cc(C)c1S(=O)(=O)NCCOc1ccccc1 | inactive: -4.12% | 
23 | COc1ccc(OC)c(CN(CCCN2CCOCC2)C(=O)Nc2ccccc2)c1 | inactive: 11.9% | 
24 | COC(=O)CCC(=O)OC1(C)C(=O)C=C2C=C(C3CC3)N(CCCCO)C=C2C1=O (stereo unspecified) | inactive: 14.2% | 

Row | SMILES | activity change, negative = inhibition | Potency
25 | CCN1C(=O)CSC1=Nc1ccc(OC)cc1 |  | inconclusive: 31.6 µM [activator, single point]
26 | Cc1csc(=O)n1CC(=O)Nc1ccc(S(C)(=O)=O)cc1 |  | inconclusive: 23.1 µM [activator, partial curve, poor fit]
27 | COc1ccc(-c2nnc(SCc3ccccc3F)o2)cc1 |  | inconclusive: 4.61 µM [activator, partial curve]
28 | O=C(CSc1c(Cl)cccc1Cl)NC1CCCc2ccccc21 (stereo unspecified) | inactive: 9.03% | 
29 | O=c1oc2ccccc2cc1-c1ccc(O)cc1 |  | inconclusive: 10.3 µM [activator, partial curve]
30 | Cn1c(/C(C#N)=C/C2CC=CCC2)nc2ccccc21 (stereo unspecified) |  | inconclusive: 0.231 µM [activator, full curve, poor fit]
31 | CCN(CC)c1ccc(/C=N/NC(=O)c2cnccn2)cc1 |  | inconclusive: 18.3 µM [activator, partial curve]
32 | Cc1nc2c(sc3nc(N4CCOCC4)c4c(c32)CC(C)(C)OC4)c(-c2ccc(Cl)cc2)c1C(=O)O |  | inconclusive: 1.64 µM [inhibitor, full curve]
33 | Cc1ccc2cc(CNC(C)(C)C)c(=O)[nH]c2c1 |  | inconclusive: 23.1 µM [activator, partial curve, poor fit]
34 | COCCNC(=O)C1CCC(CNS(=O)(=O)c2c(C)cc(C)cc2C)CC1 (stereo unspecified) |  | inconclusive: 4.11 µM [inhibitor, full curve, poor fit]
35 | Cc1ccnc(N=Cc2c(O)ccc3oc4c(c23)CCCC4)c1 |  | inconclusive: 29.1 µM [inhibitor, single point]
36 | COC(=O)C(Cc1ccc(O)cc1)NC(=O)NC12CC3CC(CC(C3)C1)C2 (stereo unspecified) | inactive: 3.94% | 
37 | O=C(/C=C/c1cccnc1)c1cc(F)ccc1O |  | inconclusive: 1.3 µM [inhibitor, full curve, poor fit]
38 | COc1ccc(Cl)cc1C(=O)NNC(=O)c1cccc([N+](=O)[O-])c1 | inactive: 3.35% | 
39 | Cc1ccc(CNc2ccc(O)cc2)cc1 |  | inconclusive: 23.1 µM [inhibitor, partial curve, poor fit]
40 | C[C@@H]1CN([C@H](C)CO)C(=O)c2cc(NC(=O)NC3CCCCC3)ccc2O[C@H]1CN(C)S(C)(=O)=O |  | inconclusive: 23.1 µM [activator, single point]
41 | C/C(=N\OCc1nc2ccccc2c(=O)n1/N=C/c1cc([N+](=O)[O-])ccc1O)c1ccccc1 |  | inconclusive: 23.1 µM [inhibitor, partial curve, poor fit]
42 | O=C(NC1CC1)c1ccc(F)cc1Cl |  | inconclusive: 32.6 µM [activator, partial curve, poor fit]
43 | COc1ccccc1OCC(=O)NNC(=O)Nc1ccc(Cl)cc1 | inactive: 14.7% | 
44 | COc1ccc([C@H]2CC(=O)C=C(c3ccnc4ccc(Cl)cc34)C2)cc1 | inactive: -27.8% | 
45 | CCOc1ccc(/C=N/Nc2ccccn2)cc1OC |  | inconclusive: 14.6 µM [activator, partial curve]
46 | CCOc1ccc(OCC)c(NC(=O)CSCCc2ccccn2)c1 |  | inconclusive: 29.1 µM [inhibitor, single point]
47 | O=C(Cn1cnc2cc([N+](=O)[O-])ccc2c1=O)NCc1ccccc1 |  | inconclusive: 18.3 µM [inhibitor, single point]
48 | CN(C)c1ccc(C(=O)N/N=C/c2ccccn2)cc1 |  | inconclusive: 20.6 µM [activator, partial curve]

Row | SMILES | activity change, negative = inhibition | Potency
49 | CCOC(=O)N1CCN(C(=O)c2ccccc2-c2ccccc2)CC1 |  | inconclusive: 3.66 µM [inhibitor, partial curve, poor fit]
50 | CCCCCCN1C=CC(=C2C(=O)c3ccccc3C2=O)C=C1 |  | inconclusive: 0.517 µM [activator, partial curve, poor fit]
51 | CC(C)(C)c1nc2scc(-c3ccc(Br)cc3)c2c(=O)o1 |  | inconclusive: 29.1 µM [inhibitor, single point]
52 | COc1ccc(/C=C/C(=O)NNc2cc(=O)n(C)c(=O)n2C)cc1OC | inactive: -5.67% | 
53 | C#CCN1C(=O)C(O)(CC(=O)c2ccc(OC)c(OC)c2)c2ccccc21 (stereo unspecified) | inactive: -11.2% | 
54 | CCO[C@H]1OC(C(=O)NCc2nc3ccccc3[nH]2)=C[C@@H](C2CCCCC2)[C@@H]1CCCO |  | inconclusive: 14.6 µM [inhibitor, partial curve, poor fit]
55 | COc1ccc(C2(c3ccc(OC)cc3)NC(=O)N(CC(=O)Nc3ccccc3)C2=O)cc1 |  | inconclusive: 20.6 µM [inhibitor, single point]
56 | Cc1cc(Br)c(NC(=O)CN2CCCC2)c(Br)c1 |  | inconclusive: 20.6 µM [activator, single point]
57 | CC(C)OC(=O)c1cccc(C(=O)Nc2cccc(NC(=O)c3cccc(C(=O)OC(C)C)n3)n2)n1 |  | active: 8.2 µM
58 | Cc1c(N2C(=O)/C(=C/c3ccccc3)SC2=S)c(=O)n(-c2ccccc2)n1C | inactive: 0% | 
59 | Cc1c(Br)ccc(NC(=O)CCN2C(=O)C3C4CCC(C4)C3C2=O)c1C (stereo unspecified) |  | inconclusive: 20.6 µM [activator, partial curve]
60 | CCN(CC(=O)NCc1cccs1)C(=O)c1ccc(C)o1 | inactive: 4.51% | 
61 | COc1ccc(-n2c(SCC#N)nnc2-c2ccc(NS(=O)(=O)c3ccc(C)cc3)cc2)cc1 |  | inconclusive: 29.1 µM [inhibitor, partial curve, poor fit]
62 | CN(C)CCCN(C(=O)c1ccco1)c1nc2ccc(Cl)cc2s1 |  | inconclusive: 20.6 µM [activator, single point]
63 | COc1cccc(C(=O)O/N=C2\CCS(=O)(=O)c3sccc32)c1 | inactive: 5.55% | 
64 | Cc1ccc(Nc2nc(C)cc(C)c2C(N)=O)c(C)c1 | inactive: 0.132% | 
65 | O=C(Cc1ccc(F)cc1)Nc1ccc(Cl)cn1 |  | inconclusive: 10.3 µM [activator, partial curve]
66 | CCOC(=O)N1CCN(C(=O)CNC(=O)c2ccccc2F)CC1 |  | inconclusive: 16.4 µM [activator, single point]
67 | CC(=O)N1c2ccc(S(=O)(=O)NCCC(=O)Nc3cccc(Cl)c3)cc2CC1C (stereo unspecified) | inactive: -6.86% | 
68 | C=CCc1ccc(OCCCOc2ccc(C)c(C)c2)c(OC)c1 | inactive: 8.3% | 
69 | OCc1nc2c(ccc3ccccc32)[nH]1 |  | inconclusive: 20.6 µM [activator, partial curve, poor fit]
70 | O=C(COC(=O)c1ccc(F)cc1Cl)Nc1cccc(S(=O)(=O)N2CCOCC2)c1 |  | inconclusive: 29.1 µM [inhibitor, single point]
71 | Cc1ccc(OCC(=O)N2CCN(C(=O)c3cccc(F)c3)CC2)cc1 | inactive: 3.19% | 

A different layout for some results above.
Row,SMILES,"activity change, negative = inhibition",Potency
16,CCN1CCN(CC2COc3ccccc3O2)CC1 (stereo unspecified),,"inconclusive: 8.2 µM [activator, partial curve]"
17,CC1(C(=O)NCCCNc2ncc(C(F)(F)F)cc2Cl)C=CCN1C(=O)c1ccccc1 (stereo unspecified),inactive: 24.1%,
51,CC(C)(C)c1nc2scc(-c3ccc(Br)cc3)c2c(=O)o1,,"inconclusive: 29.1 µM [inhibitor, single point]"
71,Cc1ccc(OCC(=O)N2CCN(C(=O)c3cccc(F)c3)CC2)cc1,inactive: 3.19%,
